The text below walks through data of publication PMC10756756.

Amino acid sequences for entries named in this document (tags omitted).
UniProt P08183: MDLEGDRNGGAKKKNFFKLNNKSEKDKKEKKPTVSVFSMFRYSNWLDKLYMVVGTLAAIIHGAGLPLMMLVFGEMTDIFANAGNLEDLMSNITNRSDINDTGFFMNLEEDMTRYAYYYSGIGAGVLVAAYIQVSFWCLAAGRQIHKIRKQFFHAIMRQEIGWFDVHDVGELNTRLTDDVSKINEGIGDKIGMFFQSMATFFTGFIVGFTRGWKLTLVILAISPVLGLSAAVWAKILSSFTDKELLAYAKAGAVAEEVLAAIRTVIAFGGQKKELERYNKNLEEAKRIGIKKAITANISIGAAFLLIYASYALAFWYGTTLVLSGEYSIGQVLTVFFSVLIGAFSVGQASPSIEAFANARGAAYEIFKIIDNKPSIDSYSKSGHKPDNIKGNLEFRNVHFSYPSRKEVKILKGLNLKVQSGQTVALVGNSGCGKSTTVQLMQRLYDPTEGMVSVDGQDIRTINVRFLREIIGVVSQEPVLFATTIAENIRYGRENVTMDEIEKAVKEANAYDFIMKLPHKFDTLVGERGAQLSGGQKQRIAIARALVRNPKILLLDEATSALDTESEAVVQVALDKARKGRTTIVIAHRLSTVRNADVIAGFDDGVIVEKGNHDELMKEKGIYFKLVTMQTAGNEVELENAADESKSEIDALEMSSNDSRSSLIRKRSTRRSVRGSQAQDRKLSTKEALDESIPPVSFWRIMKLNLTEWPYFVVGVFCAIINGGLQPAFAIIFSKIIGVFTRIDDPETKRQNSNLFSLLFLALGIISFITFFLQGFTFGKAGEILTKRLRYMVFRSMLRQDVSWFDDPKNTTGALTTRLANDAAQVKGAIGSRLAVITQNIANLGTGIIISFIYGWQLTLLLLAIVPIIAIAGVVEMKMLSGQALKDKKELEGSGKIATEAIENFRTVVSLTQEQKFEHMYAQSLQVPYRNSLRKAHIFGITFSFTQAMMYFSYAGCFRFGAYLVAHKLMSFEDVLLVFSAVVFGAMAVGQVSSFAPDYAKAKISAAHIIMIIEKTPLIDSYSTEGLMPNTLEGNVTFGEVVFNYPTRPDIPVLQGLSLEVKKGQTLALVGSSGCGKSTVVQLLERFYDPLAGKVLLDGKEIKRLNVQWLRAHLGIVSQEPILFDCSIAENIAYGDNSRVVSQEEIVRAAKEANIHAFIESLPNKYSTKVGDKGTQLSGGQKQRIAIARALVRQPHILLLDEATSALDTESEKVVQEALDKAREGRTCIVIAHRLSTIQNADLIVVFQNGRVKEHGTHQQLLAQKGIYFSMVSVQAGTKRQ

The target of assay [1] is T1, AUXIN …4 (AXR4), HA-His tagged (Arabidopsis thaliana) (UniProt Q9FZ33).
T1 sequence: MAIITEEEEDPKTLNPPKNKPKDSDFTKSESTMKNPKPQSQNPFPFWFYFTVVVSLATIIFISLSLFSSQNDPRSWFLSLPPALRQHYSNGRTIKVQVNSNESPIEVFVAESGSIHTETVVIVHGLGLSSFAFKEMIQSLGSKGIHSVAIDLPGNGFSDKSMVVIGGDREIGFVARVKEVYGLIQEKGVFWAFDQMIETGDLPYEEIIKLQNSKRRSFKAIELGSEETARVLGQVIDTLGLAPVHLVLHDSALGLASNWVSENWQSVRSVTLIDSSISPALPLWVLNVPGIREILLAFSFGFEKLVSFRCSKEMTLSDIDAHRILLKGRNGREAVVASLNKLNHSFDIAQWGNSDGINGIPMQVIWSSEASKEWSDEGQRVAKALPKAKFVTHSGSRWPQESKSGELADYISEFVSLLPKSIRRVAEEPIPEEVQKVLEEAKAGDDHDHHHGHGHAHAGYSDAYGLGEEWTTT
Briefly: co-IP; HIS-AXR4 and HIS-ABCB1 co-expressed in Sf9 insect cells; AXR4 immunoprecipitated with anti-AXR4 antibodies (Pierce Co-IP Kit), binding overnight at 4°C in IP lysis/wash buffer; detection with anti-HIS antibodies.

Assay [2] addresses T2, AUXIN1 (AUX1), His-FLAG tagged (Arabidopsis thaliana) (UniProt Q96247).
T2 sequence: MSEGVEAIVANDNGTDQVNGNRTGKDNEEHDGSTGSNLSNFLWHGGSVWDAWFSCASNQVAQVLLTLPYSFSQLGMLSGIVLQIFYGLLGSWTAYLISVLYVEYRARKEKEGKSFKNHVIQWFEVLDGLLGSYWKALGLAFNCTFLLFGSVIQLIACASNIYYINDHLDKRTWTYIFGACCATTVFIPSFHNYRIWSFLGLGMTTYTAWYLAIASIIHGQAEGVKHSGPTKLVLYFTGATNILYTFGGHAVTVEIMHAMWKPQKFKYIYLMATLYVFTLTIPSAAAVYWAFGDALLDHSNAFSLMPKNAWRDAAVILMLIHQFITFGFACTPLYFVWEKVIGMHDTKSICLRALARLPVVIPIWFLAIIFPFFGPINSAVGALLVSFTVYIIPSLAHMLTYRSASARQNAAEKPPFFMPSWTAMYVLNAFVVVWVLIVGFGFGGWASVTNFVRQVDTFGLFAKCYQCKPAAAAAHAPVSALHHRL
The assay can be described thus: co-IP; AXR4 and FLAG-AUX1 co-expressed in Sf9 insect cells; FLAG-AUX1 immunoprecipitated with anti-FLAG resin (Pierce Co-IP Kit), binding overnight at 4°C in IP lysis/wash buffer (0.025 M Tris, 0.15 M NaCl, 0.001 M EDTA, 1% NP-40, 5% glycerol, pH 7.4); AXR4 detected with anti-AXR4 antibodies.

No constants are given. Whether binding was seen depends on the method and setting. Binding seen in cells or lysates may run through a third protein. Some binding calls cover weakened binding; strength is not graded here. Where a sequence is shown, tags or fusion partners need not be part of it.

As to “mammalian multidrug pump ABCB1, His tagged (from UniProt P08183 1-1280)”, in assay [1], the binding entry is “no binding”.

B1: AUXIN …4 (AXR4), HA-His tagged (protein, UniProt Q9FZ33 1-473)
chain: T1 sequence
For B1, the binding result in assay [2] is recorded as “binds”.
